Laboratory results published in patent US20220403021A1.
These are yes or no findings as the source states them, for the method shown. Binding seen in cells or lysates may run through a third protein. Some entries that bind do so weakly or less than the wild type.

Sequences of proteins named here, by UniProt entry; tags and fusion partners are left off. A change or cut given only in a name is not applied to a line headed by its entry. A line that says so, or that is headed by a name, gives the form on record, which may keep a tag or linker.
recombinant 8×His-tagged full-length (FL, aa 1-383) wild-type human Tau (0N4R isoform) (P10636, form named): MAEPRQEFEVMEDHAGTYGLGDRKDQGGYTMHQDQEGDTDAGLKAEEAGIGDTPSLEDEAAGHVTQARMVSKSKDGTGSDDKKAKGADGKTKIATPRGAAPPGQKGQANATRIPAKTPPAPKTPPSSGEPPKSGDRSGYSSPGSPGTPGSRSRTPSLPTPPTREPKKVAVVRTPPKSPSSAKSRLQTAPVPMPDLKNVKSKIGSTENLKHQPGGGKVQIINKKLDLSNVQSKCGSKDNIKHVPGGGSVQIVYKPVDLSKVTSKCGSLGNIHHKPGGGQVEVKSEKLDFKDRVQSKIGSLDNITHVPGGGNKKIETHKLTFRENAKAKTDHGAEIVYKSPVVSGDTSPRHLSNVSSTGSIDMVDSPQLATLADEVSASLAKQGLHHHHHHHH

Biological target: T1, Synaptogyrin-3 (mouse) (mouse) (UniProt Q8R191)
T1 sequence (looked up): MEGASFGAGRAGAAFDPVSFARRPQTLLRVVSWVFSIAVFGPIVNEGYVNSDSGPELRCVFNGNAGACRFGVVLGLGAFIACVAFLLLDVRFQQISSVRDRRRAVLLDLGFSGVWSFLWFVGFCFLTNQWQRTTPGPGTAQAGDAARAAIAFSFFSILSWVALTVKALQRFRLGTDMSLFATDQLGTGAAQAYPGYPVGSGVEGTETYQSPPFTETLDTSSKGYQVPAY
Assay: co-IP of mouse SV lysate with recombinant Tau as bait, LC-MS/MS

binding: binds
Substance: recombinant 8×His-tagged full-length (FL, aa 1-383) wild-type human Tau (0N4R isoform) (from UniProt P10636 1-383)
